The supplement of paper PMC11006884
Only a part is listed here, and it is no random draw.

Protein sequences, listed by entry. Tags and fused reporters are not part of them. Lines headed by an entry give the natural chain unless they say otherwise; changes in a name come on top.
UniProt P45880: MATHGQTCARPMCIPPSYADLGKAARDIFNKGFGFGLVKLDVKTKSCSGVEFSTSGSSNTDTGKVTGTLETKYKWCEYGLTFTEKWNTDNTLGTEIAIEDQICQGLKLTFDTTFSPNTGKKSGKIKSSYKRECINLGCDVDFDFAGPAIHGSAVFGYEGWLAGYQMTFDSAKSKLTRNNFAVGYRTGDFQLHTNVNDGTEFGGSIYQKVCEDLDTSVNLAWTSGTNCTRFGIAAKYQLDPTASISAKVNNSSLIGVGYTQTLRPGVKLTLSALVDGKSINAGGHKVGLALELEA
UniProt P49327, whole entry, looked up: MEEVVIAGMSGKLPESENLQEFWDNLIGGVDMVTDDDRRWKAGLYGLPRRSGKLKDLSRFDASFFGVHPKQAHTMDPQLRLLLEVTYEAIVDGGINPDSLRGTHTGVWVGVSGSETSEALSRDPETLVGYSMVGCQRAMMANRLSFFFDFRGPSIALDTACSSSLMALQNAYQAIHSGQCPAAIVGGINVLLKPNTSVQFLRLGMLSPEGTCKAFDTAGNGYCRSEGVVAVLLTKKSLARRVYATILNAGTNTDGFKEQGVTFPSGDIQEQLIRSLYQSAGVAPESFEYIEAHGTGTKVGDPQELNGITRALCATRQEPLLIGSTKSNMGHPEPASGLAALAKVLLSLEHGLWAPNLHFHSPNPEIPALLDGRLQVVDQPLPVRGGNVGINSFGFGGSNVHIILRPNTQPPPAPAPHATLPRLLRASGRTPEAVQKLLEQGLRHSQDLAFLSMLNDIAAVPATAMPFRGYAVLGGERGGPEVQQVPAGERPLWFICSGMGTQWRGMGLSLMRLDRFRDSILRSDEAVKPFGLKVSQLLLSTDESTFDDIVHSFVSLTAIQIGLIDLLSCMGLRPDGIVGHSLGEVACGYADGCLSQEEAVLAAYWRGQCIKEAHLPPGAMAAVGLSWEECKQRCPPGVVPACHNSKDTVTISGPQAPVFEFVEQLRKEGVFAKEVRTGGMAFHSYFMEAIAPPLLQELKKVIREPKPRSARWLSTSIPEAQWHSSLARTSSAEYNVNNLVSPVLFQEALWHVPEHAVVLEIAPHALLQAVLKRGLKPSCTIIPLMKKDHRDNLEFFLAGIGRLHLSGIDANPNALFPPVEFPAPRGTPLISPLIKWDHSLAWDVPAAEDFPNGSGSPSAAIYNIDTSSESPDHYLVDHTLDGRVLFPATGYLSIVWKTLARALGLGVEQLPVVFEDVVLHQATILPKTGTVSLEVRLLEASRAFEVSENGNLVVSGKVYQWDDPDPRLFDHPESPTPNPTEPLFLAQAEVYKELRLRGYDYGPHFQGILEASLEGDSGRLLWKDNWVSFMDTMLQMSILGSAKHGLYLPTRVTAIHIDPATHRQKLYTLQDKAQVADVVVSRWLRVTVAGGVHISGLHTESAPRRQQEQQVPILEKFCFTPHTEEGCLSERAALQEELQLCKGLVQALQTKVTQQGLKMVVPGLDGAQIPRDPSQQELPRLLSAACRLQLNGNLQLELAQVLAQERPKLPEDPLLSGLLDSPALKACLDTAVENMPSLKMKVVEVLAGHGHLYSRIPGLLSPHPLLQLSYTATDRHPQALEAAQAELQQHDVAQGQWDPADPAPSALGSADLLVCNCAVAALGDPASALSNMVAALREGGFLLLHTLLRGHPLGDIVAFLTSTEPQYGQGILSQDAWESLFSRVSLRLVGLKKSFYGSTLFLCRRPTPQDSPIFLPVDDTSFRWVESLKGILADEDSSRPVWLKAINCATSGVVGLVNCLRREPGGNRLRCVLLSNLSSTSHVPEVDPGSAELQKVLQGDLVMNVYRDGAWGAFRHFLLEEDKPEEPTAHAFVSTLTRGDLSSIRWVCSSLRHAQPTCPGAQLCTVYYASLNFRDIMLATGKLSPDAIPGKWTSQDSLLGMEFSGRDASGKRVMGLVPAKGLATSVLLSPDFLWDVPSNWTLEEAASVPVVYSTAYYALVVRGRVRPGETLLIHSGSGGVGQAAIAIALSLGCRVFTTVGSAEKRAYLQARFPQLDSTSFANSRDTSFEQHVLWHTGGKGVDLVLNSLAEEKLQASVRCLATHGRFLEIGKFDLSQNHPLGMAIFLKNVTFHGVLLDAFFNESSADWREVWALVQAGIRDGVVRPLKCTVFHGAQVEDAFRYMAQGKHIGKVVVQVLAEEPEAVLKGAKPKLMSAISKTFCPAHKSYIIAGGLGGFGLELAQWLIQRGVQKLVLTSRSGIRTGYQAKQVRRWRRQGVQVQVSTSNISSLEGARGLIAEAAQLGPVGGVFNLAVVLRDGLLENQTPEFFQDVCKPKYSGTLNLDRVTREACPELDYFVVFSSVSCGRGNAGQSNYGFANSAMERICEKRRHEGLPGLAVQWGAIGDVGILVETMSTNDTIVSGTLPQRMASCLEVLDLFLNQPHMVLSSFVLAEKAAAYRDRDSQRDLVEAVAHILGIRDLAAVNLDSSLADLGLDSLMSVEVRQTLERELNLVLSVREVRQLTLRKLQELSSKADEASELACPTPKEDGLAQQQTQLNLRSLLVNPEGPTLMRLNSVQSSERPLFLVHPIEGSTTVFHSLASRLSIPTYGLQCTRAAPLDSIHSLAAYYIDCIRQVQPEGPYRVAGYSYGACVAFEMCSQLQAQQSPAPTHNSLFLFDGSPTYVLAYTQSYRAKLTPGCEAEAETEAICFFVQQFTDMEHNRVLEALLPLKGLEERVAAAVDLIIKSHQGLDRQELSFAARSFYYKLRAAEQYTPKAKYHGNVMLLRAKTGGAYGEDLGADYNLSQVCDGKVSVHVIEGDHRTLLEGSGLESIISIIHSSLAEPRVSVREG
UniProt P50990: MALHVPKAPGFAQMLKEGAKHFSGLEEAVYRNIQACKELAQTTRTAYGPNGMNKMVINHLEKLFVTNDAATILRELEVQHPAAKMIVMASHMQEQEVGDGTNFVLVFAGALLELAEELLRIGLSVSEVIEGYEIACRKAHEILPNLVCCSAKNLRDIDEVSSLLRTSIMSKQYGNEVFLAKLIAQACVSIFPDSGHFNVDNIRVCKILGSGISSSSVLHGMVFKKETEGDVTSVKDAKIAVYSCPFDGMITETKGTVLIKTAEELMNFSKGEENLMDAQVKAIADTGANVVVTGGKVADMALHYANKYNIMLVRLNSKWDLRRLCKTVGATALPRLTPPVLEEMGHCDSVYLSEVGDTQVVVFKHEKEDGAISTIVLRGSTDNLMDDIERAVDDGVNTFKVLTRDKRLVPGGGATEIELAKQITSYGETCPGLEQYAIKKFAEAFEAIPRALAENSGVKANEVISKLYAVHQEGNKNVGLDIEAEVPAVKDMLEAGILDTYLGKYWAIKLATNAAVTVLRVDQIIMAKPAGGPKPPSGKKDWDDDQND
UniProt P49821, whole entry, looked up: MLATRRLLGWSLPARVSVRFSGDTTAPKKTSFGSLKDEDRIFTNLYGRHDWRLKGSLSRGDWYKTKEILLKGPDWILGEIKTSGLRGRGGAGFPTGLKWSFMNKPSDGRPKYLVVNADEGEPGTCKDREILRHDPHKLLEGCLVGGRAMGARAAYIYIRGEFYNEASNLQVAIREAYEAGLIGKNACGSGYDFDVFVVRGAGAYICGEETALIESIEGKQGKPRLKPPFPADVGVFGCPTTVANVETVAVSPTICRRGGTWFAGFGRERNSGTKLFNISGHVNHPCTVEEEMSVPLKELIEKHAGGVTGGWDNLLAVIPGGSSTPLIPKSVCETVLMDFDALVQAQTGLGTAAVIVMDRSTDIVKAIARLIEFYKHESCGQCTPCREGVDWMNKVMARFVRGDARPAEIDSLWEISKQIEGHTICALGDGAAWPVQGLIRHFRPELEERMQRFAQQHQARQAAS
UniProt P49368: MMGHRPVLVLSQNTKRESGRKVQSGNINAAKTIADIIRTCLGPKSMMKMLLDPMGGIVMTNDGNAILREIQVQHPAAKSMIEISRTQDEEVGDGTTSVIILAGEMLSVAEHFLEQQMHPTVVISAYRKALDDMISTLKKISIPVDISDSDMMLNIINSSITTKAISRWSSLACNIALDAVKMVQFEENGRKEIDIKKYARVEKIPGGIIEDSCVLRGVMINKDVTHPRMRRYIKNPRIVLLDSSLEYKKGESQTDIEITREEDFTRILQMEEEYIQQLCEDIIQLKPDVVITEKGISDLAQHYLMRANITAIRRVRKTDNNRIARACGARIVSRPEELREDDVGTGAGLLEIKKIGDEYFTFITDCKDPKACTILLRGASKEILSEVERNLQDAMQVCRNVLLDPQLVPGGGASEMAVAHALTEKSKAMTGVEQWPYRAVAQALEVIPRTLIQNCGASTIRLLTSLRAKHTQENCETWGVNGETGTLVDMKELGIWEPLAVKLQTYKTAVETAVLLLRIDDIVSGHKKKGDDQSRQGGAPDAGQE
UniProt P50548: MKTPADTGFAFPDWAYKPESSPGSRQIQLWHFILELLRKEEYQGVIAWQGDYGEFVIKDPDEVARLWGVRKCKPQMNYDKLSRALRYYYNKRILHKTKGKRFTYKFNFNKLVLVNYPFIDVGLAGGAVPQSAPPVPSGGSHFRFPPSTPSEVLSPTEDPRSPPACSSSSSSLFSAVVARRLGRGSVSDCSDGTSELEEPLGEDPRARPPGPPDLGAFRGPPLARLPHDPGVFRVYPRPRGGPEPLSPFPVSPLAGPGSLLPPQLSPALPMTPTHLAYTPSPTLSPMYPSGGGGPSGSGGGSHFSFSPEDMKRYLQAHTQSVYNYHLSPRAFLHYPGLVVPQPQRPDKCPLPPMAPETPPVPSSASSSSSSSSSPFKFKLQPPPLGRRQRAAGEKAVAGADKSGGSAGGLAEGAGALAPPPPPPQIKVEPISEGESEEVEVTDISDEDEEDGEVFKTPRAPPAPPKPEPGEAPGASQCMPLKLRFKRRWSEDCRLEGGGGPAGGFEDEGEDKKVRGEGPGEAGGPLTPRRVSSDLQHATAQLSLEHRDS
UniProt P43304: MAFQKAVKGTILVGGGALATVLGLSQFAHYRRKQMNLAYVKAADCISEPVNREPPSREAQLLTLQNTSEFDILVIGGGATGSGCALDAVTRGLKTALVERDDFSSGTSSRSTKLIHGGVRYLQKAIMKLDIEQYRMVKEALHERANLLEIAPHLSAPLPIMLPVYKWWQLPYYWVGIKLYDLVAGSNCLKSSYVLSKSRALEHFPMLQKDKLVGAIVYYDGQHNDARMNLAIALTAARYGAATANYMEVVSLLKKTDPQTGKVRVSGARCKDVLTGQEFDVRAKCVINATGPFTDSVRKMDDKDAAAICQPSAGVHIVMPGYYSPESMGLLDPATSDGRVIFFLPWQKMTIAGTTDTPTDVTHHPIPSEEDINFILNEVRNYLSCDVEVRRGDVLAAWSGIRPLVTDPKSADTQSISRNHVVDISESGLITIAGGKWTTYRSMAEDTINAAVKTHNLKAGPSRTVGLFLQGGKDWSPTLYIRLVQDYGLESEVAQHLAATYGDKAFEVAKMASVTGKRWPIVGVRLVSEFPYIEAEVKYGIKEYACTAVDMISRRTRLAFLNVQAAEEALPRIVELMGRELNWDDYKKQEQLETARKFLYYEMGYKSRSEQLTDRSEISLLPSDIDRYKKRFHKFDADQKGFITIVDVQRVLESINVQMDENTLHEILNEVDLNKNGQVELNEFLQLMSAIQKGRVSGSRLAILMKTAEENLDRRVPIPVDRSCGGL
UniProt P49458: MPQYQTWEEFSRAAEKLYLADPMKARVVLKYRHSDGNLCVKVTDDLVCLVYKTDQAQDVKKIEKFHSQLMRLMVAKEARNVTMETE
UniProt P43243: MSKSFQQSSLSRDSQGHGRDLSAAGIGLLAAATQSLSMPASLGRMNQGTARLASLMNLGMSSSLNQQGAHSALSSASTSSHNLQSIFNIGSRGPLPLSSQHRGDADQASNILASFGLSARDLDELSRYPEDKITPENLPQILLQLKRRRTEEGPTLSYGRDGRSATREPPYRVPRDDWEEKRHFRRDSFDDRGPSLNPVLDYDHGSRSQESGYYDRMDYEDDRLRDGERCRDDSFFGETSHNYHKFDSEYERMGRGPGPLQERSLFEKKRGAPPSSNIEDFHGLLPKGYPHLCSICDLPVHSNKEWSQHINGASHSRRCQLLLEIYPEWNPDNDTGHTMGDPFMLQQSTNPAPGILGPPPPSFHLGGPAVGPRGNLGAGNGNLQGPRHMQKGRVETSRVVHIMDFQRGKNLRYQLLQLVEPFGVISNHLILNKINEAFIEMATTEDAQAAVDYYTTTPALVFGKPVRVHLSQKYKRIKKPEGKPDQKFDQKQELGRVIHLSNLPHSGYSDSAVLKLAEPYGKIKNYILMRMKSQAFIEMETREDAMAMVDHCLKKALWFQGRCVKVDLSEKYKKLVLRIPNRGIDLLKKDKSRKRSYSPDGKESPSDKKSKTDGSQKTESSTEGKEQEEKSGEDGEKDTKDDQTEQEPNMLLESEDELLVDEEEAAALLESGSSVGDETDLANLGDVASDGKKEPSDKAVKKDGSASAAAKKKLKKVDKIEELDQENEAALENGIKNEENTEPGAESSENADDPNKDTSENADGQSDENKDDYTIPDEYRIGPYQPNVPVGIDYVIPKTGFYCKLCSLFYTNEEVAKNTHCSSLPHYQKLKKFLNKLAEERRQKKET

Compound: COC(=O)C#Cc1ccccc1 [methyl 3-phenylpropiolate]
Assay: log2 ratio of iodoacetamide-alkyne labeling of the cysteine site, DMSO over compound (competition); higher = stronger covalent engagement of the cysteine by the compound, active = 1 or more
Settings: 500 µM; treatment time 1 h; system: HEK293T cell lysate
In short: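 For each cysteine, the log2 competition ratio is mean control-channel reporter intensity over mean compound-channel reporter intensity. HEK293T lysate (2 mg/mL) was exposed to vehicle or electrophile (500 µM, 1 h, ambient temperature), labelled with iodoacetamide alkyne (1 h), clicked to sCIP-TMT reagents, digested overnight with trypsin at 37 °C, streptavidin-enriched and analysed by Orbitrap Eclipse LC-MS/MS with FAIMS and FragPipe. Cysteines quantified in only one of three replicates, each with duplicate channels, were excluded.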

| Target | log2 ratio of iodoacetamide-alkyne labeling |
| --- | --- |
| MAP1B C382 (UniProt P46821) | inactive: 0.848 |
| VDAC2 C13 (UniProt P45880) | active: 1.11 |
| FASN C779 (UniProt P49327) | inactive: 0.317 |
| DHPS C142 (UniProt P49366) | inactive: -0.105 |
| KNTC1 C767 (UniProt P50748) | inactive: 0.0315 |
| LIMS1 C121 (UniProt P48059) | inactive: 0.19 |
| CCT8 C149 (UniProt P50990) | inactive: 0.0525 |
| PPOX C183 (UniProt P50336) | inactive: 0.262 |
| NASP C254 (UniProt P49321) | inactive: 0.246 |
| GMPS C554 (UniProt P49915) | inactive: 0.0582 |
| MAP1B C2088 (UniProt P46821) | inactive: 0.329 |
| NDUFV1 C425 (UniProt P49821) | inactive: 0.283 |
| UniProt P48634_C1821 | inactive: 0.222 |
| ALDH7A1 C522 (UniProt P49419) | inactive: 0.395 |
| RPL5 C100 (UniProt P46777) | inactive: 0.0186 |
| CCT3 C475 (UniProt P49368) | inactive: 0.185 |
| AARS C773 (UniProt P49588) | inactive: 0.138 |
| RANBP2 C1335 (UniProt P49792) | inactive: 0.226 |
| FASN C313 (UniProt P49327) | inactive: 0.093 |

Part of the list above in a different format.
Target	log2 ratio of iodoacetamide-alkyne labeling
NASP C254 (UniProt P49321)	inactive: 0.246
FASN C313 (UniProt P49327)	inactive: 0.093

Next part.

| Target | log2 ratio of iodoacetamide-alkyne labeling |
| --- | --- |
| CCT5 C429 (UniProt P48643) | inactive: 0.459 |
| CCT8 C244 (UniProt P50990) | inactive: 0.242 |
| MKI67 C1981 (UniProt P46013) | inactive: -0.201 |
| ME1 C556 (UniProt P48163) | inactive: 0.22 |
| HCFC1 C1872 (UniProt P51610) | active: 1.32 |
| CCT8 C36 (UniProt P50990) | inactive: 0.573 |
| CCT4 C221 (UniProt P50991) | inactive: 0.272 |
| ERF C165 (UniProt P50548) | inactive: 0.582 |
| CCT3 C455 (UniProt P49368) | inactive: 0.0979 |
| FASN C1471 (UniProt P49327) | inactive: 0.341 |
| GPD2 C385 (UniProt P43304) | inactive: 0.0903 |
| SRP9 C48 (UniProt P49458) | inactive: -0.31 |
| MATR3 C821 (UniProt P43243) | inactive: 0.127 |
| RBM25 C83 (UniProt P49756) | inactive: 0.149 |
| CCT8 C187 (UniProt P50990) | inactive: 0.172 |
| NDUFV1 C125 (UniProt P49821) | inactive: 0.521 |
| METAP2 C298 (UniProt P50579) | inactive: 0.1 |
| VDAC2 C227 (UniProt P45880) | active: 1.39 |
